Some of these results come from one statement about several compounds together. At least one structure is not confirmed: it was looked up by name or label, or the drawing left a doubt.
Assay: Redox properties by differential pulse and cyclic voltammetry
Type: physicochemical
Details: physiological pH (7.4)
Procedure: In an embodiment, and as an example, AntiOxCINs redox properties were evaluated (Table 1). Redox potentials are correlated with the ability of an antioxidant to donate a hydrogen atom and/or an electron to a free radical.
However, for pyrogallol derivatives (AntiOxCIN4, AntiOxCIN5 and AntiOxCIN7), a significant decrease in redox potentials was observed (Ep=0.034-0.057 V) (Table 1).
The voltammograms presented a diffusion peak and an adsorption post-peak at a more anodic potential correspondent to the oxidation of dissolved and adsorbed forms of the compounds, respectively. The oxidation waves can be related to the oxidation process of the pyrogallol moiety. The cyclic voltammograms also show the presence of two overlapped anodic peaks. The anodic peaks appeared to correspond to irreversible processes as any distinct reduction wave was not seen on the cathodic sweep. The existence of the additional phenolic group in the pyrogallol systems, when compared with the catechol ones, seems to influence the stabilization of the semiquinone intermediate and in turn the oxidative mechanism.
In an embodiment, the electrochemical analytical data was obtained using a computer controlled potentiostat Autolab PGSTAT302N (Metrohm Autolab, Utrecht, Netherlands). Generally, cyclic voltammetry (CV) data was acquired at a scan rate of 50 mVs^−1. Differential pulse voltammetry (DPV) results were acquired at a step potential of 4 mV, pulse amplitude of 50 mV and scan rate of 8 mVs^−1. The electrochemical signals were monitored by the General Purpose Electrochemical System (GPES) version 4.9, software package. All electrochemical experiments were performed at room temperature in an electrochemical cell that was placed in a Faraday cage in order to minimize the contribution of background noise to the analytical signal.
In an embodiment, the process of evaluation of AntiOxCINs redox properties was conducted as follows: stock solutions of each compound (10 mM) were prepared by dissolving the appropriate amount in ethanol. […]

CS(=O)(=O)[O-].O=C(/C=C/c1ccc(O)c(O)c1)NCC[P+](c1ccccc1)(c1ccccc1)c1ccccc1 [AntiOxCIN1, reference compound]
Ep (redox potential): 0.164-0.174 V

CS(=O)(=O)[O-].O=C(/C=C/c1cc(O)c(O)c(O)c1)NCCCCCCCC[P+](c1ccccc1)(c1ccccc1)c1ccccc1 [AntiOxCIN5, (E)-(8-(3-(3,4,5-trihydroxyphenyl)acrylamido)octyl)triphenylphosphonium methanesulfonate]
Ep (redox potential) (methanesulfonate): 0.034-0.057 V

O=C(O)/C=C/c1ccc(O)c(O)c1 [Caffeic acid, caffeic acid, reference compound]
Ep (redox potential) (listed as caffeic acid): 0.164-0.174 V
